Some of these results come from one statement about several compounds together.
Key:
[1] = system: CD-1 mouse splenocytes; assay: Splenocyte stimulation: [3H]dThd incorporation into DNA (Table 7, FIGS. 10, 11); assay type: cell-based
Excerpt: FIG. 10 show controls and the effects of different concentrations of compounds of the invention, at different time points, on the proliferation of cultured mouse splenocytes as measured by DNA synthesis through incorporation of radiolabeled thymidine into the cells' DNA.
FIG. 11 show controls and the effects of different concentrations of compounds of the invention, at different time points, on the proliferation of cultured mouse splenocytes as measured by DNA synthesis through incorporation of radiolabeled thymidine into the DNA.
Splenocytes were prepared from CD mice as a single cell suspension, and treated with red blood cell (RBC) lysis buffer (as described at http://www.ebioscience.com/ebioscience/specs/antibody—00/00-4333.htm) to remove RBCs. In a typical experiment, splenocyte stimulations by […] (PHA), panaxytriol (PXT) or Compound D were measured by using tritium-labeled thymidine, ^3H-dThd, as a tracer for DNA synthesis. DNA synthesis correlates with cell proliferation. […] The supernatant was added to a 7-fold volume of Liquicint for scintillation counting, which was accomplished with a Beckman LS 6000 IC spectrometer from Beckman Coulter Co. The incorporation of [^3H]dThd into DNA of splenocytes were measured as described above or previously (Chou et al. Phytotherap. Res. 3: 237-242, 1989). […]

[2] = system: normal human PBMC lymphocytes; assay: Human PBMC lymphocyte viability by actual cell counts (hemacytometer; Tables 8A, 8B, FIG. 9); assay type: cell-based; conditions: FIGS. 9A
Excerpt: FIGS. 9A & 9B show effects of panaxytriol and Compound D, respectively, in varying doses at 24 (▪), 72 (●), and 120 (▴) hours on human PBMC lymphocyte survival based on actual cell counts. In both cases, lower amounts of the compounds increase cell proliferation. […] Cell counts in controls without active agent were: at 24 hrs: 75.4%; at 72 hrs: 93.0%; and at 120 hrs: 85.7%. FIG. 9 parallel the experiments in FIG. 8 but used a different method to determine cell survival; the method used in FIG. 9 was actual cell counting using a hemocytometer and microscope.
The effects of panaxytriol and Compound D on the viability of normal human PBMC lymphocytes shown in Tables 8A and 8B were determined using hemacytometer/microscope determinations. PBMC cells were obtained fresh from the New York Blood Center, New York, N.Y. 10021 (Dr. S. B. Jiang). Cell counts were performed in duplicate for 0, 0.1, 0.3, 1.0, 3.0, and 10.0 μM of each compound at the end of 24 hr, 72 hr, and 120 hr incubations. Incubation was carried out in RPMI 1640 medium (GIBCO/BRL) with 10% heat inactivated fetal bovine serum. […] Acad. Sci. USA 98: 8113-8118, 2001.

SMILES | low concentrations with marked stimulatory effect [1] | low concentrations reducing or delaying spontaneous cell death [2]
C=C[C@@H](O)C#CC#CC[C@H]1OC(C)(C)O[C@@H]1CCCCCCC [Compound (A)] | 0.01 to 0.1 µM | 
C=C[C@H](O)C#CC#CC[C@H]1OC(C)(C)O[C@@H]1CCCCCCC [Compound (D)] | 0.01 to 0.1 µM | 0.1 to 0.3 µM

— patent US8859615B2, “Compounds, compositions and methods for reducing toxicity and treating or preventing diseases” (priority 2008, dated 2014)
